Data as given in PMC4726734.
Results are given in words; binding and its absence hold for the method and conditions named. Some results given as binding are weak or reduced against the parent protein; the word gives no strength.

The chains behind the UniProt entries cited, without tags or fusion partners. Where a name states a change or a piece, a line headed by the entry shows the natural chain unless it says otherwise.
UniProt Q16254: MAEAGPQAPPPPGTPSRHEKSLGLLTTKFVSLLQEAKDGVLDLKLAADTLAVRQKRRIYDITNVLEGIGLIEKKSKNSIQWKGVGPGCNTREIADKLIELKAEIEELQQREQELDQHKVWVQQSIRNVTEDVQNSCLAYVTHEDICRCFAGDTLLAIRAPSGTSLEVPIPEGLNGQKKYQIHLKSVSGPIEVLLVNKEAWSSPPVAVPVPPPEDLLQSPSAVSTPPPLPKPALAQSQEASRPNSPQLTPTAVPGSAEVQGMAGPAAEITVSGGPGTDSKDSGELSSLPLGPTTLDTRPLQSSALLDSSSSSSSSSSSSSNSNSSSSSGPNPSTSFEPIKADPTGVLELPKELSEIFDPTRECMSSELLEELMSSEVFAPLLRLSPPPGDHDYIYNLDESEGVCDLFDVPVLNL
UniProt Q01094: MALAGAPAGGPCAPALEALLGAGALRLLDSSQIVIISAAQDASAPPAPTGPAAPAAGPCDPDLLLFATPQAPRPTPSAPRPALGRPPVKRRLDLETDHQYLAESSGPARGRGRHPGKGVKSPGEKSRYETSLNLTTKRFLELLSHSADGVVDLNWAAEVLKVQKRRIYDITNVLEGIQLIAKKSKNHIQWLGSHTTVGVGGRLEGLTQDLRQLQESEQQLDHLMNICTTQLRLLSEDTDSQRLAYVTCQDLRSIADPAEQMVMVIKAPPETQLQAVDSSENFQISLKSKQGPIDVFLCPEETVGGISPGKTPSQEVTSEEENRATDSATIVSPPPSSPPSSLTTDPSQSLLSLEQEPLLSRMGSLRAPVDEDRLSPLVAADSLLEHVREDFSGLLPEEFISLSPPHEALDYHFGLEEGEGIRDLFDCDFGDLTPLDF
UniProt O00716: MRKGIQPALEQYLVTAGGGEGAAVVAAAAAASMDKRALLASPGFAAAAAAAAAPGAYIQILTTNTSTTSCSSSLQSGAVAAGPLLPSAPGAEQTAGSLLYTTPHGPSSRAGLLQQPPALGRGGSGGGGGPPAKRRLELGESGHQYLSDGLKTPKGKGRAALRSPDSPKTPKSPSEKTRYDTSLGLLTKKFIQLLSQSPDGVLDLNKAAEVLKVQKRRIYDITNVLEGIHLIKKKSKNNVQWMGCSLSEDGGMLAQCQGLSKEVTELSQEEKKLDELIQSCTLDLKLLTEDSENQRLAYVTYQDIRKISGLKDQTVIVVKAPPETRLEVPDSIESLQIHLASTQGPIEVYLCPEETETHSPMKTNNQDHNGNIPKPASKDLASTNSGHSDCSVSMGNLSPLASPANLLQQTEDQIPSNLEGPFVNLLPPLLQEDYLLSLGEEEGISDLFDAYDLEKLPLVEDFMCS
UniProt Q14186: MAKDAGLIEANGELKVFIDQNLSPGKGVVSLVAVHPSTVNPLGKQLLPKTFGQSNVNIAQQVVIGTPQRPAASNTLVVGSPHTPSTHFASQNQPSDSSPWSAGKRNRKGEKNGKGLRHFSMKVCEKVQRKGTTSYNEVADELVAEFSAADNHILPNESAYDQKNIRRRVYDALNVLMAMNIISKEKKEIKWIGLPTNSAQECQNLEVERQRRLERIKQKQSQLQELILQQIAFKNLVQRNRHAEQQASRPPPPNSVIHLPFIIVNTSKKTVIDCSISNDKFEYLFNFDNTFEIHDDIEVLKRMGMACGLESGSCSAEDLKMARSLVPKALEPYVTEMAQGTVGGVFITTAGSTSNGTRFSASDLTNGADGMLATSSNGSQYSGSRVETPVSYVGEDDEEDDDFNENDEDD

Tests used:
Assay in all cases: native gel or EMSA; nuclear extract from HDF-TERT cells (untreated or treated with IFNα or IFNγ for 24 hr) with a 32P-labeled DNA probe (E1A-ENH, Ad5 nt 271-288); composition of the DNA-protein complexes identified with specific antibodies to E2F, DP and Rb family members
[1] = target: E2F-4 (human (endogenous in HDF-TERT)) (UniProt Q16254)
[2] = target: E2F1 (human (endogenous in HDF-TERT)) (UniProt Q01094)
[3] = target: E2F3 (human (endogenous in HDF-TERT)) (UniProt O00716)

Measured: binding

DP-1 (from UniProt Q14186 1-410)
binds: [1] | [2] | [3]
